In the assay the target is HA-Sd (Scalloped) (Drosophila) (UniProt P30052). The assay is described as follows: co-IP.

The chains behind the UniProt entries cited, without tags or fusion partners.
UniProt P30052, whole entry: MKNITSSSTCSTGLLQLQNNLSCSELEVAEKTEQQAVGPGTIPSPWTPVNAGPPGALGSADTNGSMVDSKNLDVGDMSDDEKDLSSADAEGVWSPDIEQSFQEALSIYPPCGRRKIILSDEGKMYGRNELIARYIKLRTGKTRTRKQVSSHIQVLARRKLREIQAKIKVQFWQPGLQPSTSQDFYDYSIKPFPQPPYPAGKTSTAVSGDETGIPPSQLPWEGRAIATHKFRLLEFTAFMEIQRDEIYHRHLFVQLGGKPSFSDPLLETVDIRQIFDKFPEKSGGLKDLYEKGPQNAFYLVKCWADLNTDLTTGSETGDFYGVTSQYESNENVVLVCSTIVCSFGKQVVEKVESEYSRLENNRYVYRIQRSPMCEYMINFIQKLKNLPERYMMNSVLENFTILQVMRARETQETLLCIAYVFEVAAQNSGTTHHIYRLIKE

No constants are given. Whether binding was seen depends on the method and setting. In cells and extracts the contact can be indirect. Some binding calls cover weakened binding; strength is not graded here. Where a sequence is shown, tags or fusion partners need not be part of it.

B1: GFP-Yki (Yorkie) (protein, UniProt Q45VV3 1-395)
chain: MLTTMSASSNTNSLIEKEIDDEDMLSPIKSNNLVVRVNQDTDDNLQALFDSVLNPGDAKRPLQLPLRMRKLPNSFFTPPAPSHSRANSADSTYDAGSQSSINIGNKASIVQQPDGQSPIAAIPQLQIQPSPQHSRLAIHHSRARSSPASLQQNYNVRARSDAAAANNPNANPSSQQQPAGPTFPENSAQEFPSGAPASSAIDLDAMNTCMSQDIPMSMQTVHKKQRSYDVISPIQLNRQLGALPPGWEQAKTNDGQIYYLNHTTKSTQWEDPRIQYRQQQQILMAERIKQNDVLQTTKQTTTSTIANNLGPLPDGWEQAVTESGDLYFINHIDRTTSWNDPRMQSGLSVLDCPDNLVSSLQIEDNLCSNLFNDAQAIVNPPSSHKPDDLEWYKIN
With B1, the binding entry is recorded as “binds”.

These data come from publication doi:10.1101/2020.01.21.913806.
